In publication PMC3189125:
These are yes or no findings as the source states them, for the method shown. Binding seen in cells or lysates may run through a third protein. Some binding calls cover weakened binding; strength is not graded here.

Amino acid sequences for entries named in this document (tags omitted).
UniProt P21244: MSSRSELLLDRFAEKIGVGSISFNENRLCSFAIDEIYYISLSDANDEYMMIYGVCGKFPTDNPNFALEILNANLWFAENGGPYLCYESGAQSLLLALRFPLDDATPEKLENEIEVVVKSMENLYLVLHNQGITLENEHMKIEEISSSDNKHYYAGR
UniProt B7UM99: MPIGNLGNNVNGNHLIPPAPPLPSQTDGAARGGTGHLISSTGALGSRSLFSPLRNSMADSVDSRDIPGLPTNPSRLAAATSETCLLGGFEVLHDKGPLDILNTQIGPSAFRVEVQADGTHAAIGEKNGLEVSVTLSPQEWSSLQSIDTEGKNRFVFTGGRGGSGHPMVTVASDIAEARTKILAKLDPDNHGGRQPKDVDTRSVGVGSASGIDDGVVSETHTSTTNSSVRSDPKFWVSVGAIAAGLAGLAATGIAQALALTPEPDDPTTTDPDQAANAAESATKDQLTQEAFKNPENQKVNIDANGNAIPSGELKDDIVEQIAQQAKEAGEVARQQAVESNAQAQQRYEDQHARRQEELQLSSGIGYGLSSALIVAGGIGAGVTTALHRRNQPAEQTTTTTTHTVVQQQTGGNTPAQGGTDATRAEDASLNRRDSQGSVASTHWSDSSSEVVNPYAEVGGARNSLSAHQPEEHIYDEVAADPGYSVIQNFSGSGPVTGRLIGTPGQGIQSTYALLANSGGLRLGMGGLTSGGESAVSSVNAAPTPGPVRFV

Biological target: CesT, multicargo type III secretion chaperone (enteropathogenic E. coli E2348/69 (endogenous in EPEC)) (UniProt P21244)
Assay: co-IP; affinity purified polyclonal anti-CesT antibody on Protein A agarose beads, added to EPEC cell lysates, overnight at 4°C, washed 3 times with PBS, eluted with 100 mM glycine pH 2.2; elution fractions immunoblotted

Substance	binding
HA-EscU-FLAG (auto-cleaved EscU) (from UniProt Q9AJ26 1-262; Q9AJ26 263-345)	no binding
Tir, type III effector (from UniProt B7UM99 1-550)	binds
